This test deals with Escherichia coli Mfd (transcription-repair coupling factor) (Escherichia coli) (UniProt P30958). In words: SEC; gel filtration of purified Mfd (Supplementary Fig. 1a); nucleotide state and buffer of this run not given; both purified.

The chains behind the UniProt entries cited, without tags or fusion partners.
UniProt P30958: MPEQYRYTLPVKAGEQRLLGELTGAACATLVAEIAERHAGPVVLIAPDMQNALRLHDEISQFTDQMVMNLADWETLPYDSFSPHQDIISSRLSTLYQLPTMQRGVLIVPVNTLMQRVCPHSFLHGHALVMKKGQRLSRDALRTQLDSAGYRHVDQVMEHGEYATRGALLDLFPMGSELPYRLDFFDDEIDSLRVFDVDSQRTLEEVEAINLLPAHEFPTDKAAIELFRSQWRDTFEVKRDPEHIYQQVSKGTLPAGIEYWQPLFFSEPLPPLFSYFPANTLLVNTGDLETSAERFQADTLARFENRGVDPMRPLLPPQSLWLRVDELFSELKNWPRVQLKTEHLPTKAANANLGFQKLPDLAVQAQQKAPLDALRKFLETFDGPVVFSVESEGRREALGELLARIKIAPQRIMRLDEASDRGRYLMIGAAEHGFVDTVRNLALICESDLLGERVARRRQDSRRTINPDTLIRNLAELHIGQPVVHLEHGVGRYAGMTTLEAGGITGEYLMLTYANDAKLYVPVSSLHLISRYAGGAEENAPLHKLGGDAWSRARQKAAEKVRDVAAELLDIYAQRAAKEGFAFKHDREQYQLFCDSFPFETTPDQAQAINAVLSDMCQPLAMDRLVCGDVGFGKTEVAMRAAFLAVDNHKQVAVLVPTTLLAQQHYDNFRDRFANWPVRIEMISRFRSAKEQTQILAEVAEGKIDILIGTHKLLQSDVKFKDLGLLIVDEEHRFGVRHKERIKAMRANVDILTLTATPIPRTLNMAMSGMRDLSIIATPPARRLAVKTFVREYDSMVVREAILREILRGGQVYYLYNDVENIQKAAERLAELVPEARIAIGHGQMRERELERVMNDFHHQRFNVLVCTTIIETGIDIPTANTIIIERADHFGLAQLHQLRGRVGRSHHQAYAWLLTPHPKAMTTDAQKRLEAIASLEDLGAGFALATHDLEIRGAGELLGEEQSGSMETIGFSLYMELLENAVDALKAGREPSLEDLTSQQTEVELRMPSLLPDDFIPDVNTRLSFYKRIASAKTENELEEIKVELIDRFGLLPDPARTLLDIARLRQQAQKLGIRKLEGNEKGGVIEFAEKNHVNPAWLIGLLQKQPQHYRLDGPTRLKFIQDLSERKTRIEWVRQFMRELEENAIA

Results are given in words; binding and its absence hold for the method and conditions named.

“Escherichia coli Mfd (transcription-repair coupling factor) (from UniProt P30958 1-1148) (enzyme)”: the binding entry is reported as “no binding”.
